From patent US20160298117, “PEANUT-BINDING NUCLEIC ACID MOLECULE AND USE THEREOF” (NEC Solution Innovators, Ltd., published 2016) come the findings set out here.

Chains of the proteins cited; added tags and fusions are not shown. A line that says so, or that is headed by a name, gives the form on record, which may keep a tag or linker.
beta-conglycinin (heat-denatured, boiled 10 min) (Glycine max), one chain, as listed by the source, chain 1 of 3: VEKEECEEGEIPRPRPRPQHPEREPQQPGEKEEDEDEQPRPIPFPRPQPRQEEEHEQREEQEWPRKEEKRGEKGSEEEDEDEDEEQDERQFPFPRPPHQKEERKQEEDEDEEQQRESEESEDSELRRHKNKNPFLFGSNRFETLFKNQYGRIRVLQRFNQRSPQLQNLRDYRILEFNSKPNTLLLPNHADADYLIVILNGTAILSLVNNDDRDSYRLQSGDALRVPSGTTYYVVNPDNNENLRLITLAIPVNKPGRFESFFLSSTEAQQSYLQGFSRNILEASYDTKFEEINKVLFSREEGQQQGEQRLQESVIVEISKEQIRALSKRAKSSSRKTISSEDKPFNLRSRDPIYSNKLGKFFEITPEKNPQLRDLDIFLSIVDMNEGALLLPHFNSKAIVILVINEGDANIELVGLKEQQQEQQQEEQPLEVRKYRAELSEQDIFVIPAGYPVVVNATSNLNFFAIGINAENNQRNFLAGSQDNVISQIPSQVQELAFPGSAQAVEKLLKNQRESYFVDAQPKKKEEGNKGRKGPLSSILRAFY
beta-conglycinin (heat-denatured, boiled 10 min) (Glycine max), one chain, as listed by the source, chain 3 of 3: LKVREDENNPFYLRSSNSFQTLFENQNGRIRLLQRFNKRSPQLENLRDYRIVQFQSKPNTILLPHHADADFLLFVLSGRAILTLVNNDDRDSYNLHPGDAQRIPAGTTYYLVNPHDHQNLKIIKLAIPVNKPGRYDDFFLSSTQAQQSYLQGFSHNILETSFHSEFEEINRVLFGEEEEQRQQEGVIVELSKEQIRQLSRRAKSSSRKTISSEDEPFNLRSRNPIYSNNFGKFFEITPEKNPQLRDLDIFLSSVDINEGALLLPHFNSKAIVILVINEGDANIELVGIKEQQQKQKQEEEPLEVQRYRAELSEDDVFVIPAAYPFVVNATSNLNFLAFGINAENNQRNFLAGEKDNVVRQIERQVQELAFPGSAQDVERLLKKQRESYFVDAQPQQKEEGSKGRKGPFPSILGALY
beta-conglycinin (heat-denatured, boiled 10 min) (Glycine max), one chain, as listed by the source, chain 2 of 3: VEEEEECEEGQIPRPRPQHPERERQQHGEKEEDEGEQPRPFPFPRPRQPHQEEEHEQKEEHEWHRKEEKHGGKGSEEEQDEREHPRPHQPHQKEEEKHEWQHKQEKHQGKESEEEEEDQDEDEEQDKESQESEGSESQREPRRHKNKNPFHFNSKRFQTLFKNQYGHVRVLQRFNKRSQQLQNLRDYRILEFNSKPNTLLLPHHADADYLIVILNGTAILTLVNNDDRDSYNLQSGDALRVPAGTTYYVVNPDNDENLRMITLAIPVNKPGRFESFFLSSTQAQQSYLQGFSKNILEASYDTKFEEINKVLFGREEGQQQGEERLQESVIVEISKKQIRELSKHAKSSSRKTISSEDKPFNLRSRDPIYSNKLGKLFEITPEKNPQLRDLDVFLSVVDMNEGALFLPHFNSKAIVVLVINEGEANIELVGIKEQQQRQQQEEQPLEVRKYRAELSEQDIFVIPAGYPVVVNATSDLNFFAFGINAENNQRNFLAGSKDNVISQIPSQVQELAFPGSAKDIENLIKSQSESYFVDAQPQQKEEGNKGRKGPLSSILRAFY

Series [1] relates to peanut seed total protein extract (heat-denatured) (Arachis hypogaea). The series can be described thus: SPR. The settings on record: protein in an extract, single-stranded DNA.
Series [2] relates to peanut seed total protein extract (undenatured) (Arachis hypogaea). Kind of series: SPR. The settings on record: 1-100 ppm, less than heat-denatured, protein in an extract, single-stranded DNA.
In series [3] the test system is soybean seed total protein extract (heat-denatured) (Glycine max). Kind of series: SPR. The settings on record: protein in an extract, protein details: NMIJ CRM 7511-a ground soybean, single-stranded DNA.
In series [4] the test system is soybean seed total protein extract (undenatured) (Glycine max). The series can be described thus: SPR. To be noted: little binding, 1-100 ppm, protein in an extract, protein details: NMIJ CRM 7511-a ground soybean, single-stranded DNA.
In series [5] the test system is peanut seed total protein extract (heat-denatured) (Arachis hypogaea). Kind of series: FP. To be noted: 1 nM FITC aptamer, 3-30 ppm protein, polarization rises with concentration; protein in an extract; label: 5'-FITC; single-stranded DNA.
The test system of series [6] is soybean seed total protein extract (heat-denatured) (Glycine max). The series can be described thus: FP. The settings on record: 3-30 ppm protein, no change in polarization; protein in an extract; protein details: NMIJ CRM 7511-a ground soybean; label: 5'-FITC; single-stranded DNA.
The target of series [7] is T1, Ara h1 (heat-denatured, purified from parboiled peanut) (Arachis hypogaea) (UniProt P43238).
T1 sequence (looked up, limits assumed): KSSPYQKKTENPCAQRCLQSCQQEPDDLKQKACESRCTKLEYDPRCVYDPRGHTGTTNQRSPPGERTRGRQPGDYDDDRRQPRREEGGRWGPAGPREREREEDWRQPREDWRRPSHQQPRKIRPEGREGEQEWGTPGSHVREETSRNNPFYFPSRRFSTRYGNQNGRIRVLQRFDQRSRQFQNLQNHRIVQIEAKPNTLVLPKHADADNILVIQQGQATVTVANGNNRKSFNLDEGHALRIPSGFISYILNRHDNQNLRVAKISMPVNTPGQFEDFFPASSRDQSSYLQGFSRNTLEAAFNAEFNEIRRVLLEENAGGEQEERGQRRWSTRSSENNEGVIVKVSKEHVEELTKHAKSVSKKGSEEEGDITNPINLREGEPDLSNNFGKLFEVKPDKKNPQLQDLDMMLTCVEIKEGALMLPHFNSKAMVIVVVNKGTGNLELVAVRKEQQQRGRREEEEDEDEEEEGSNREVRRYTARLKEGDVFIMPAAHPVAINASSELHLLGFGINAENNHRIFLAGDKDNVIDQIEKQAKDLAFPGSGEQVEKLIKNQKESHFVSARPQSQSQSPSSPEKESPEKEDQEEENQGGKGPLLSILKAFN
The series can be described thus: SPR. To be noted: all T replaced by 5-tryptaminocarbonyl-dU (TrpdU); 6.25-100 nM Ara h1; purified native protein; protein details: INDOOR biotechnologies NA-AH1-1; single-stranded DNA.

Series [8] concerns beta-conglycinin (heat-denatured, boiled 10 min) (Glycine max). The series can be described thus: SPR. To be noted: all T replaced by 5-tryptaminocarbonyl-dU (TrpdU); little binding, 18.75-300 nM; purified native protein; protein details: Sigma C5868-5GM, boiled; single-stranded DNA.
For series [9], the system named is beta-conglycinin (undenatured) (Glycine max). Kind of series: SPR. The settings on record: all T replaced by 5-tryptaminocarbonyl-dU (TrpdU); little binding, 18.75-300 nM; purified native protein; protein details: Sigma C5868-5GM; single-stranded DNA.
Series [10] has as its target T2, conarachin (heat-denatured, boiled 10 min) (Arachis hypogaea) (UniProt P43238).
T2 sequence (looked up, limits assumed): T1 sequence (looked up, limits assumed)
The series can be described thus: SPR. The settings on record: all T replaced by 5-tryptaminocarbonyl-dU (TrpdU); 3.125-50 nM; superior to undenatured; purified native protein; protein details: COSMO BIO CSB-CSB-NP003601PL, boiled; single-stranded DNA.

Setting [11] is: all T replaced by 5-tryptaminocarbonyl-dU (TrpdU).

For part of these data: A negative result means that nothing was seen under these conditions. For part of these data: Tags and fusion partners may be left off the protein sequences shown. For part of these data: For at least one entry, the source does not settle the construct or the ends of the probe. For part of these data: Results from cells or extracts need not show a direct contact.

Turning to “TTTTTTTTTTTTTTTTTTTTAAAAAAAAAAAAAAAAAAAAAAAA [PolydT20]”, the binding result in series [1] (total protein extract) is “binds”; in [2] it was “binds”; in series [3] (little binding), “no binding”; in [4], “no binding”.

With “CTCTCTCTCCCCCCCCCCCTCTCTCAAAAAAAAAAAAAAAAAAAAAAAA [CT25_C11]”, the figures for the binding result in [1] (very high binding) and in series [3] (no binding) were “binds” and “no binding”, respectively.

Consider “TCTCTACCCCCCACCGCCCACGACTC [NAH1121NNH200R7m1s26]”, for which the binding result in [5] is “binds”; in series [6], “no binding”.

Take “CACACACACACCCCCCCACACACACAAAAAAAAAAAAAAAAAAAAAAAAA [CA25_C7]”: the binding result in series [1] (very high binding) is on record as “binds”; in series [3] (no binding) it was “no binding”.

“CACACACACCCCCCCCCCCACACACAAAAAAAAAAAAAAAAAAAAAAAAA [CA25_C11]”: the binding result in series [1] (very high binding) is “binds”; in series [3] (no binding), “no binding”.

In the case of “GAATCCGCGGGGTAGCGGTGGCGAGCGATTCAAAAAAAAAAAAAAAAAAAAAAAA [P_NES02 (CONA161R8m1s31)]”, the binding result in series [1] (total protein extract) was “binds”; in [2] it was “binds”; in [3] (little binding), “no binding”; in [4] it was “no binding”.

For “CACACACACACACCCACACACACACAAAAAAAAAAAAAAAAAAAAAAAAA [CA25_C3]”, the binding result is “binds” in series [1] (very high binding) and “no binding” in [3] (no binding).

As to “GTTCGTGGTGTGTTGTGTGTGATTCCAGGGACAAAAAAAAAAAAAAAAAAAAAAAA [P_NES03 (CONA161R2R8m1s32)]”, the binding result is given as “binds” in series [1] (total protein extract), “binds” in series [2], “no binding” in series [3] (little binding) and “no binding” in series [4].

Turning to “CACACACACACACACACACACACACAAAAAAAAAAAAAAAAAAAAAAAAA [CA25_C0]”, the binding result in series [1] (very high binding) is on record as “binds”; in series [3] (no binding) it was “no binding”.

“CCCGCCTGTATTCCTGTCCAAAAAAAAAAAAAAAAAAAAAAAA [P_NES01 (NAH1128R7Am2s19G)]”: the binding result is on record as “binds” in [1] (total protein extract), “binds” in series [2], “no binding” in [3] (little binding) and “no binding” in series [4].

With “CTCTCTCTCTCTCTCTCTCTCTCTCAAAAAAAAAAAAAAAAAAAAAAAA [CT25_C0]”, the binding result is listed as “binds” in series [1] (very high binding) and “no binding” in [3] (no binding).

As to “GGATTCCGTGCCGTGCTAAAGGCCTCCCCGTTTATAGGCAGGTATCCGGCAGACTACTGGGCTTGCGACAAATGAAAAAAAAAAAAAAAAAAAAAAAA [P_NES_M01 (CONA170TEDAR2R8m1)]”, the binding result is on record as “binds” in series [7]; “no binding” in series [8]; “no binding” in series [9]; “binds” in [10]; “binds” in series [1] (all T replaced by 5-tryptaminocarbonyl-dU (TrpdU), total protein extract); “binds” in [2] (setting [11]). Moreover, the binding result is reported as “no binding” in series [3] (all T replaced by 5-tryptaminocarbonyl-dU (TrpdU), little binding) and “no binding” in series [4] (setting [11]).

With “CTCTCTCTCTCCCCCCCTCTCTCTCAAAAAAAAAAAAAAAAAAAAAAAA [CT25_C7]”, the binding result in series [1] (very high binding) is on record as “binds”; in series [3] (no binding) it was “no binding”.

Regarding “CTCTCTCTCTCTCCCTCTCTCTCTCAAAAAAAAAAAAAAAAAAAAAAAA [CT25_C3 (Pyrimidine rich)]”, the binding result in [1] (total protein extract) is given as “binds”; in series [2], “binds”; in series [3] (little or no binding), “no binding”; in series [4] it was “no binding”.

With “GTTTTCTAGGCCAATCTGATCAACAAAAAAAAAAAAAAAAAAAAAAAA [P_NES04 (CONA171NNHR2R8m2s24)]”, the binding result is “binds” in [1] (total protein extract), “binds” in [2], “no binding” in series [3] (little binding) and “no binding” in series [4].
